# Measurements as given in article PMC5824958.
# Results are given in words; binding and its absence hold for the method and conditions named. In cells and extracts the contact can be indirect. A yes stands for co-enrichment or nearness to the bait. Other partners may have been found.
# T1: BRI2 (integral membrane protein 2B) (rat (endogenous in brain)) (UniProt Q5XIE8)
# T1 sequence: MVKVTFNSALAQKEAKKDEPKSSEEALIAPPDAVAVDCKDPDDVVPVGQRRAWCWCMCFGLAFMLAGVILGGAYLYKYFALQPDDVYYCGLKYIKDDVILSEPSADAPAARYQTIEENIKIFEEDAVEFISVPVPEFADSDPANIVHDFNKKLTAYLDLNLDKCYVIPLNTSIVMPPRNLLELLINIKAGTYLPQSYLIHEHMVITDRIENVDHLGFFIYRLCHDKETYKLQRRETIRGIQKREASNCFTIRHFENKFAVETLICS
# B1: Clathrin coat assembly protein AP180 (protein, UniProt Q05140 1-915)
# chain: MSGQTLTDRIAAAQYSVTGSAVARAVCKATTHEVMGPKKKHLDYLIQATNETNVNIPQMADTLFERATNSSWVVVFKALVTTHHLMVHGNERFIQYLASRNTLFNLSNFLDKSGSHGYDMSTFIRRYSRYLNEKAFSYRQMAFDFARVKKGADGVMRTMVPEKLLKSMPILQGQIDALLEFDVHPNELTNGVINAAFMLLFKDLIKLFACYNDGVINLLEKFFEMKKGQCKDALEIYKRFLTRMTRVSEFLKVADEVGIDKGDIPDLTQAPSSLMETLEQHLNTLEGKKPGNNEGSGAPSPLSKSSPATTVTSPNSTPAKTIDTSPPVDIFATASAAAPVSSAKPSSDLLDLQPDFSGARAGAAAPVPPPTGGATAWGDLLGEDSLAALSSVPSEAPISDPFAPEPSPPTTTTEPASASASATTAVTAATTEVDLFGDAFAASPGEAPAASEGATAPATPAPVAAALDACSGNDPFAPSEGSAEAAPELDLFAMKPPETSAPVVTPTASTAPPVPATAPSPAPTAVAATAATTTAAAAATTTATTSAAAATTAAAPPALDIFGDLFDSAPEVAAASKPDVAPSIDLFGTDAFSSPPRGASPVPESSLTADLLSGSGFHCAEDDRHVPLFFTAVDAFAAPSPASTASPAKAESSGVIDLFGDAFGSSASETQPAPQAVSSSSASADLLAGFGGSFMAPSTTPVTPAQNNLLQPNFEAAFGTTPSTSSSSSFDPSGDLLMPTMAPSGQPAPVSMVPPSPAMSASKGLGSDLDSSLASLVGNLGISGTTSKKGDLQWNAGEKKLTGGANWQPKVTPATWSAGVPPQGTVPPTSSVPPGAGAPSVGQPGAGYGMPPAGTGMTMMPQQPVMFAQPMMRPPFGAAAVPGTQLSPSPTPATQSPKKPPAKDPLADLNIKDFL
# B2: Alpha-internexin (protein, UniProt P23565 1-505)
# chain: MSFGSEHYLCSASSYRKVFGDGSRLSARLSGPGASGSFRSQSLSRSNVASTAACSSASSLGLGLAYRRLPASDGLDLSQAAARTNEYKIIRTNEKEQLQGLNDRFAVFIEKVHQLETQNRALEAELAALRQRHAEPSRVGELFQRELRELRAQLEEASSARAQALLERDGLAEEVQRLRARCEEESRGREGAERALKAQQRDVDGATLARLDLEKKVESLLDELAFVRQVHDEEVAELLATLQASSQAAAEVDVAVAKPDLTSALREIRAQYESLAAKNLQSAEEWYKSKFANLNEQAARSTEAIRASREEIHEYRRQLQARTIEIEGLRGANESLERQILELEERHSAEVAGYQDSIGQLESDLRNTKSEMARHLREYQDLLNVKMALDIEIAAYRKLLEGEETRFSTSGLSISGLNPLPNPSYLLPPRILSSTTSKVSSAGLSLKKEEEEEEEEEEGASKEVTKKTSKVGESFEETLEETVVSTKKTEKSTIEEITTSSSQKM
# B3: Contactin-1 (protein, UniProt Q63198 21-1001)
# chain: EFTWHRRYGHGVSEEDKGFGPIFEEQPINTIYPEESLEGKVSLNCRARASPFPVYKWRMNNGDVDLTNDRYSMVGGNLVINNPDKQKDAGIYYCLASNNYGMVRSTEATLSFGYLDPFPPEDRPEVKVKEGKGMVLLCDPPYHFPDDLSYRWLLNEFPVFITMDKRRFVSQTNGNLYIANVESSDRGNYSCFVSSPSITKSVFSKFIPLIPIPERTTKPYPADIVVQFKDIYTMMGQNVTLECFALGNPVPDIRWRKVLEPMPTTAEISTSGAVLKIFNIQLEDEGLYECEAENIRGKDKHQARIYVQAFPEWVEHINDTEVDIGSDLYWPCVATGKPIPTIRWLKNGYAYHKGELRLYDVTFENAGMYQCIAENAYGTIYANAELKILALAPTFEMNPMKKKILAAKGGRVIIECKPKAAPKPKFSWSKGTEWLVNSSRILIWEDGSLEINNITRNDGGIYTCFAENNRGKANSTGTLVITNPTRIILAPINADITVGENATMQCAASFDPSLDLTFVWSFNGYVIDFNKEITNIHYQRNFMLDANGELLIRNAQLKHAGRYTCTAQTIVDNSSASADLVVRGPPGPPGGLRIEDIRATSVALTWSRGSDNHSPISKYTIQTKTILSDDWKDAKTDPPIIEGNMESAKAVDLIPWMEYEFRVVATNTLGTGEPSIPSNRIKTDGAAPNVAPSDVGGGGGTNRELTITWAPLSREYHYGNNFGYIVAFKPFDGEEWKKVTVTNPDTGRYVHKDETMTPSTAFQVKVKAFNNKGDGPYSLIAVINSAQDAPSEAPTEVGVKVLSSSEISVHWKHVLEKIVESYQIRYWAGHDKEAAAHRVQVTSQEYSARLENLLPDTQYFIEVGACNSAGCGPSSDVIETFTRKAPPSQPPRIISSVRSGSRYIITWDHVVALSNESTVTGYKILYRPDGQHDGKLFSTHKHSIEVPIPRDGEYVVEVRAHSDGGDGVVSQVKISGVSTLS
# B4: Contactin-associated protein 1 (protein, UniProt P97846 21-1381)
# chain: WGYYGCNEELVGPLYARSLGASSYYGLFTTARFARLHGISGWSPRIGDPNPWLQIDLMKKHRIRAVATQGAFNSWDWVTRYMLLYGDRVDSWTPFYQQGHNATFFGNVNDSAVVRHDLHYHFTARYIRIVPLAWNPRGKIGLRLGIYGCPYTSNILYFDGDDAISYRFQRGASQSLWDVFAFSFKTEEKDGLLLHTEGSQGDYVTLELQGAHLLLHMSLGSSPIQPRPGHTTVSAGGVLNDLSWHYVRVDRYGREANLTLDGYVHRFVLNGDFERLNLENEIFIGGLVGAARKNLAYRHNFRGCIENVIYNRINIAEMAVQRHSRITFEGNVAFRCLDPVPHPINFGGPHNFVQVPGFPRRGRLAVSFRFRTWDLTGLLLFSRLGDGLGHVELMLSEGQVNVSIAQTGRKKLQFAAGYRLNDGFWHEVNFVAQENHAVISIDDVEGAEVRVSYPLLIRTGTSYFFGGCPKPASRWGCHSNQTAFHGCMELLKVDGQLVNLTLVEFRKLGYFAEVLFDTCGITDRCSPNMCEHDGRCYQSWDDFICYCELTGYKGVTCHEPLYKESCEAYRLSGKYSGNYTIDPDGSGPLKPFVVYCDIRENRAWTVVRHDRLWTTRVTGSSMDRPFLGAIQYWNASWEEVSALANASQHCEQWIEFSCYNSRLLNTAGGYPYSFWIGRNEEQHFYWGGSQPGIQRCACGLDQSCIDPALHCNCDADQPQWRTDKGLLTFVDHLPVTQVVIGDTNRSSSEAQFFLRPLRCYGDRNSWNTISFRTGAALRFPPIRANHSLDVSFYFRTSAPSGVFLENMGGPFCQWRRPYVRVELNTSRDVVFAFDIGNGDENLTVHSDDFEFNDDEWHLVRAEINVKQARLRVDHRPWVLRPMPLQTYIWLEYDQPLYVGSAELKRRPFVGCLRAMRLNGVTLNLEGRANASEGTFPNCTGHCTHPRFPCFHGGRCVERYSYYTCDCDLTAFDGPYCNHDIGGFFETGTWMRYNLQSALRSAAQEFSHMLSRPVPGYEPGYIPGYDTPGYVPGYHGPGYRLPDYPRPGRPVPGYRGPVYNVTGEEVSFSFSTSSAPAVLLYVSSFVRDYMAVLIKEDGTLQLRYQLGTSPYVYQLTTRPVTDGQPHSVNITRVYRNLFIQVDYFPLTEQKFSLLVDSQLDSPKALYLGRVMETGVIDPEIQRYNTPGFSGCLSGVRFNNVAPLKTHFRTPRPMTAELAEAMRVQGELSESNCGAMPRLVSEVPPELDPWYLPPDFPYYHDDGWIAILLGFLVAFLLLGLVGMLVLFYLQNHRYKGSYHTNEPKATHDSHPGGKAPLPPSGPAQAPAPTPAPTQVPTPAPAPASGPGPRDQNLPQILEESRSE
# B5: Copine-9 (protein, UniProt Q5BJS7 1-553)
# chain: MSLGGASERSVPATKIEITVSCRNLLDLDTFSKSDPMVVLHTQSRASQEWREFGRTEVIDNTLNPDFVRKFVLDYFFEEKQNLRFDVYNVDSKANISKPKDFLGQAFLALGEVIGGQGSRVERPLTGVPGKKCGTILLTAEELSNCRDIATMQLCANKLDKKDFFGKSDPFLVFYRSNEDGTFTICHKTEVVKNTLNPVWQPFSIPVRALCNGDYDRTVKIDVYDWDRDGSHDFIGEFTTSYRELSKAQNQFTVYEVLNPRKKCKKKKYTNSGTVTLLSFSVDSEFTFVDYIKGGTQLNFTVAIDFTASNGNPLQPTSLHYMSPYQLSAYAMALKAVGEIIQDYDSDKLFPAYGFGAKLPPEGRISHQFPLNNNDEDPNCAGIEGVLESYFQSLRTVQLYGPTYFAPVINQVARAAAKISDGSQYYVLLIITDGVISDMTQTKEAIVSASSLPMSIIIVGVGPAMFEAMEELDGDDVRVSSRGRYAERDIVQFVPFRDYVDRSGNQVLSMARLAKDVLAEIPEQLLSYMRTRDIQPRPPPPANPNPTSAPEQP
# B6: Disks large-associated protein 2 (protein, UniProt P97837 1-1059)
# chain: MGTAQVLPGILQKHCCILPDRNTESQCTLCGEPEEEEGGDLAQPGLSFPGPAEEDIDQQYSWSPTQHFSEERYSPAPRNMKGLTGSRNQPQLCVGHTCGLSPTDECEHPHDHVRHGPDVRQPYLLSPAESCPMDHHRCSPRSSVHSECMMMPVMLGDHVSSSTFPRMHYSSHYDTRDDCATSHASTKVNRIPANLLDQFEKQLPLHRDGFHTLQYHRASAATEQRNESPGRIRHLVHSVQKLFTKSHSLEGSSKSNINGTKSEGRMDDHHQSHLSKHSKRSKSKERKPESKHKSGMSSWWSSDDNLDSDSTYRTPSVAHRHHMDHIPHCYPEALQSPFGDLSLKTSKSNSDVKCSACEGLALTPDTRYMKRSSWSTLTVSQAKEAYRKSSLNLDKPLVHPEIKPSLQPCHYLQVPQDDWGAYPTGGKEEEIPCRRMRSGSYIKAMGDEESGESDSSPKTSPTVALRPEPLLKSIIQRPLGDHQTQSYLQAATEVPVGHSLDPSVNYNSPKFRSRNQSYMRAVSTLSQASCVSQMSEAEVNGQFESVCESVFSEVESQAMDALDLPGCFRTRSHSYLRAIQAGYSQDDECIPVMTPSNMTSTIRSTAAVSYTNYKKTPPPVPPRTTSKPLISVTAQSSTESTQDAYQDSRAQRMSPWPQDSRGGLYNSMDSLDSNKAMNLALESAAAQRHAADTQSSSTRSIDKAVLVSKAEELLKSRCSSIGVQDSEFPDHQPYPRSDVETATDSDTESRGLREYHSVGVQVEDEKRHGRFKRSNSVTAAVQADLELEGFPGHVSMEDKGLQFGSSFQRHSEPSTPTQYGALRTVRTQGLFSYREDYRTQVDTSTLPPPDPWLEPSLDTVETGRMSPCRRDGSWFLKLLHTETKKMEGWCKEMEREAEENDLSEEILGKIRSAVGSAQLLMSQKFQQFYWLCQQNMDPSAMPRPTSQDLAGYWDMLQLSVEDVSMKFDELHQLKLNDWKIMESPERKEERKIPPPIPKKPPKGKFPITREKSLDLPDRQRQEARRRLMAAKRAASFRQNSATERADSIEIYIPEAQTRL
# Target: T1, BRI2 (integral membrane protein 2B) (rat (endogenous in brain))
# Assay: affinity purification with mass spectrometry; mouse anti-BRI2 antibody (N-terminal region) on Dynabeads Protein G; pre-cleared rat cerebral cortex, hippocampus and cerebellum lysates (50 mM Tris-HCl pH 8.0, 120 mM NaCl, 4% CHAPS), overnight at 4 °C; co-precipitated proteins identified by nano-HPLC-MS/MS; hits absent from the two mock IPs or with a PSM ratio >= 2.0
row,Binder,binding
1,B1,binds
2,B2,binds
3,B3,binds
4,B4,binds
5,B5,binds
6,B6,binds
